Holding throughout (experiment): log2 fold change, soluble protein after heating vs DMSO (PISA); higher = thermal stabilisation; K562 lysate, 10 uM; active = over 0.2 and 3.5 SD of the protein, either way, in both replicates (recomputed)
Compound in experiment [1]: C1=CC=C(C=C1)[C@H](COC2=CC3=C(C=C2)NC(=O)N3)NC(=O)C4=CC=CN(C4=O)CC5=CC(=C(C=C5)F)F
A digest of the protocol: (§1)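 Following dounce homogenisation of K562 pellets in PBS pH 7.4 with 1 mM MgCl2, crude extract at 1 mg/mL protein was incubated for 30 min with 10 μM compound. Aliquots were then heated for 3 min over 48°C-58°C and pooled, NP-40 was added to 0.5% at 4°C, and soluble protein was recovered as the supernatant at 21,000xg for 90 min. Channel-sum-equalised TMTpro 16plex LC-MS/MS quantified this protein. Each value, from duplicates, is a log-two fold change in thermal stability relative to solvent controls.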

The chains behind the UniProt entries cited, without tags or fusion partners. Where a name states a change or a piece, a line headed by the entry shows the natural chain unless it says otherwise.
UniProt Q5U5X0: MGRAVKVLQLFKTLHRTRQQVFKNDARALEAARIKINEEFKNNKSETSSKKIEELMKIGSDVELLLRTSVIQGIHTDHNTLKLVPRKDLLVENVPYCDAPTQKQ
UniProt Q96A72, whole entry, looked up: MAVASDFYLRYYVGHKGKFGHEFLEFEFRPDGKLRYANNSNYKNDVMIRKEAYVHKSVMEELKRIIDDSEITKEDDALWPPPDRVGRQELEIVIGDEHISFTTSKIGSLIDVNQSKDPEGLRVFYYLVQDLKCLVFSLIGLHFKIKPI
UniProt O60307: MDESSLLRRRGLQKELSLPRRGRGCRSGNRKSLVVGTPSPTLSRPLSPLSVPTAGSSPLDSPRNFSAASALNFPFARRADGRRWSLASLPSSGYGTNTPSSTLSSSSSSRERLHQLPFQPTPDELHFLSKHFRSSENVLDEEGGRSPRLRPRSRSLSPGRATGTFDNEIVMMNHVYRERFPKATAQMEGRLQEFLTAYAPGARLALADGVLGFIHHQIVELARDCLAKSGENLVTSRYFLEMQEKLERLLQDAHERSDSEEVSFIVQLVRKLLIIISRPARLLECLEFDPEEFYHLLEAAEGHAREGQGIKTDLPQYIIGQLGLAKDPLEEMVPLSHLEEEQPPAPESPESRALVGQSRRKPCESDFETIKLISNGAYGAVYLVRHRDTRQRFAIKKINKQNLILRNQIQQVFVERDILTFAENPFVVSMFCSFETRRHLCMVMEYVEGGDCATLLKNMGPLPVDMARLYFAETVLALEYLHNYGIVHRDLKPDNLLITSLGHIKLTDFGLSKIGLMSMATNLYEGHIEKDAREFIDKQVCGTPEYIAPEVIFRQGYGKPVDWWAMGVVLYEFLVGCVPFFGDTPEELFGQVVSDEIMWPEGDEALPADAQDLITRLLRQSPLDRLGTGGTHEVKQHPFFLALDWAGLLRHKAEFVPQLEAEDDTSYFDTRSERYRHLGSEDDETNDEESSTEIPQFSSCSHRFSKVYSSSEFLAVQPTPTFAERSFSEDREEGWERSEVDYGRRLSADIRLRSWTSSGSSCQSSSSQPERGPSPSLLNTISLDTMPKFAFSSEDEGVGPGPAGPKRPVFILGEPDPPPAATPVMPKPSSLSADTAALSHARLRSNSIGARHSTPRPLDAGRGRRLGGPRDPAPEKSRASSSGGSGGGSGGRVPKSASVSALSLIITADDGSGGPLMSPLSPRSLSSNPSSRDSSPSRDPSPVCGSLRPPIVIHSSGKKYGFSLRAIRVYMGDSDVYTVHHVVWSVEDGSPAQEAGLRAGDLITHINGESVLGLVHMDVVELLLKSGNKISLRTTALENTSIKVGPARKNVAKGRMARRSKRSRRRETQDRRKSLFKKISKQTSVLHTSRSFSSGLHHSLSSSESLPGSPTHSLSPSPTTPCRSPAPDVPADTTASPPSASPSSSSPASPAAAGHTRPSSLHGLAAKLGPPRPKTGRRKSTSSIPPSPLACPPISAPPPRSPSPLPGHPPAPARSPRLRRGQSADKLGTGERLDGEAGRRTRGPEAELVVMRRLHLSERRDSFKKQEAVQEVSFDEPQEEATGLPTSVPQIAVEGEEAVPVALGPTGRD
UniProt P43357, whole entry, looked up: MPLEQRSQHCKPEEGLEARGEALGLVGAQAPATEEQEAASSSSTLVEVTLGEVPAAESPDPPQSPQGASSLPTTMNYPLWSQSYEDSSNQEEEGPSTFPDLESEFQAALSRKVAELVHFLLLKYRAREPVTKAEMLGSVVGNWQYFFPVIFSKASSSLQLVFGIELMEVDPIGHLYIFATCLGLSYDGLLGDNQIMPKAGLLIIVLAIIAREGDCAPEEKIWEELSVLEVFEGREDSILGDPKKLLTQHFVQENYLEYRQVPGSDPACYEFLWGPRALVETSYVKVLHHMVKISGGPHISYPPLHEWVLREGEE
UniProt P43358: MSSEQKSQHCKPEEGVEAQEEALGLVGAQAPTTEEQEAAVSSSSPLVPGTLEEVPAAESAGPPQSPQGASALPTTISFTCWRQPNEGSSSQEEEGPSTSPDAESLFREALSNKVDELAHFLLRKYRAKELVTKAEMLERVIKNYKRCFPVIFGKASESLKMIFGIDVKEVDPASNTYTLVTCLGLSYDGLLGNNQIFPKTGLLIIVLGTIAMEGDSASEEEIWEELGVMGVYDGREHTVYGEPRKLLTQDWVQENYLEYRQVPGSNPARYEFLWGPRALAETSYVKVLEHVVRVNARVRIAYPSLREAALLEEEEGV
UniProt Q86UD3: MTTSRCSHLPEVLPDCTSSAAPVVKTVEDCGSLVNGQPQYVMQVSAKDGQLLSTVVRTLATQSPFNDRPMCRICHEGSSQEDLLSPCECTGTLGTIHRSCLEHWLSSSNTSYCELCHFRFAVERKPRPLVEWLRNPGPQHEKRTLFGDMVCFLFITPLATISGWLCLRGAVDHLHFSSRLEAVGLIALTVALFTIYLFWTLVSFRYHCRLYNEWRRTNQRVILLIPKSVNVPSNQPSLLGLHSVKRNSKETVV
UniProt Q13164: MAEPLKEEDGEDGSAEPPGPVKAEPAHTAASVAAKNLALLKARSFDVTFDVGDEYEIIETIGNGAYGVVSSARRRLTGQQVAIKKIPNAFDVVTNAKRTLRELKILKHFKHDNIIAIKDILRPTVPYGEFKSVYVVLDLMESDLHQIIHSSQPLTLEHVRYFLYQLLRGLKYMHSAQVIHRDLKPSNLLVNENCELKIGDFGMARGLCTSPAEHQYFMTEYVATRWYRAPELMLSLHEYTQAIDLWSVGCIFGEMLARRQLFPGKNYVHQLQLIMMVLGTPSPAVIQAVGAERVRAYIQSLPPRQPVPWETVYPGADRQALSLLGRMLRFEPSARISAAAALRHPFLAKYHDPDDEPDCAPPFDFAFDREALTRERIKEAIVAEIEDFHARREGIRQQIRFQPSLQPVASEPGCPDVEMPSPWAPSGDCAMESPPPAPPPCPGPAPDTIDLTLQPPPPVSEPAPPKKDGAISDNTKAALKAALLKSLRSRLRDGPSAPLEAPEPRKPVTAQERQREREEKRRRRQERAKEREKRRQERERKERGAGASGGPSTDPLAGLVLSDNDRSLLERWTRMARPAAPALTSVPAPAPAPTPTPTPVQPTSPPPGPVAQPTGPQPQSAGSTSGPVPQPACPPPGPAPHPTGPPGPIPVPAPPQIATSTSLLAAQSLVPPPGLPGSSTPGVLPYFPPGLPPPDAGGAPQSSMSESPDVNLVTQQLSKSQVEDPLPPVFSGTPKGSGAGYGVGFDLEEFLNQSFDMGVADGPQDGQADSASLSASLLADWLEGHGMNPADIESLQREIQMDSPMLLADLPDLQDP
UniProt Q8TD08: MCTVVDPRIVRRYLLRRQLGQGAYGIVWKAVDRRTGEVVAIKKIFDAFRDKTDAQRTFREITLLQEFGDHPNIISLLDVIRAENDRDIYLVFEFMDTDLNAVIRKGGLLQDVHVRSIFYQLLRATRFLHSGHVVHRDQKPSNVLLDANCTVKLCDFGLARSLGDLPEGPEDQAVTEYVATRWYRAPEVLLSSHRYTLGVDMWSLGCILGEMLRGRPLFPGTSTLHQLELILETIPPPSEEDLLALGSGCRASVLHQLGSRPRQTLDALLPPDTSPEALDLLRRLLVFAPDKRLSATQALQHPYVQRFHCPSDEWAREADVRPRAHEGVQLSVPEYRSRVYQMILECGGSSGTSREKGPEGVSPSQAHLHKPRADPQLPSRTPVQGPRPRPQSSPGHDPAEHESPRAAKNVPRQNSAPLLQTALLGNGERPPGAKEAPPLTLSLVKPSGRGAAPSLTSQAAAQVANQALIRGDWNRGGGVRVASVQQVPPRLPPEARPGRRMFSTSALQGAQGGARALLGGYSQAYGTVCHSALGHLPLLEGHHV
UniProt Q14210: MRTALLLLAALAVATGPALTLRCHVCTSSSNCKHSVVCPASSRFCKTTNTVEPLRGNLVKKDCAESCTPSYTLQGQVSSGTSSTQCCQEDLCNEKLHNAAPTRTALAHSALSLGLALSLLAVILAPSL
UniProt Q9NQG1: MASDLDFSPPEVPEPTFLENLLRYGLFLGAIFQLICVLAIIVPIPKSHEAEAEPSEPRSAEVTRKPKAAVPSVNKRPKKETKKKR
UniProt P21397, whole entry, looked up: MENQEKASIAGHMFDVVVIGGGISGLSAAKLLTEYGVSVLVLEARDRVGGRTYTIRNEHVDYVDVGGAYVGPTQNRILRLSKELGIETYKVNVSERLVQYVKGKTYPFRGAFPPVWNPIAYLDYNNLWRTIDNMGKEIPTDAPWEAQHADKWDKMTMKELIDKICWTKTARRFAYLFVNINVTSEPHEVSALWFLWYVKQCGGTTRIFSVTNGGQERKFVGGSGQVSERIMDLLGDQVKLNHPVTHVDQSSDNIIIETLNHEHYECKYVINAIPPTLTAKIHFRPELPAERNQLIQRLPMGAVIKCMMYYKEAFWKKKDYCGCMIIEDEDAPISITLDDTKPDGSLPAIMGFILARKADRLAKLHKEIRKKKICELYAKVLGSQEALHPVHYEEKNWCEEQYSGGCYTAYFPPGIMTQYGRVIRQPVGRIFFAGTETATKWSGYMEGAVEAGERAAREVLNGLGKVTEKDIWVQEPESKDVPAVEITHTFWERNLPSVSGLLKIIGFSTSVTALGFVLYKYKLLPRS
UniProt P41279, whole entry, looked up: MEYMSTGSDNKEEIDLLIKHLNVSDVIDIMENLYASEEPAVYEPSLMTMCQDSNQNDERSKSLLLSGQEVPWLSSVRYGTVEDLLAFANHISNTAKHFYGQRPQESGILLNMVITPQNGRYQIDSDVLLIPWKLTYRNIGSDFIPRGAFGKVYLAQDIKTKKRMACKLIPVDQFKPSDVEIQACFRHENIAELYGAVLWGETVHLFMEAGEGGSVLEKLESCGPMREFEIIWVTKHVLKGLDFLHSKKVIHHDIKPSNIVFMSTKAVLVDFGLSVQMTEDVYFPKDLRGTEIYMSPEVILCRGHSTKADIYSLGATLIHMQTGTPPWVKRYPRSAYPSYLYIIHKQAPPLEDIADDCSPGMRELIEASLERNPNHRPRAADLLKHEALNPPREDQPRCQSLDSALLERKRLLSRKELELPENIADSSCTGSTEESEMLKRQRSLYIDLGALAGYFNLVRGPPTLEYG
UniProt Q9HAY2: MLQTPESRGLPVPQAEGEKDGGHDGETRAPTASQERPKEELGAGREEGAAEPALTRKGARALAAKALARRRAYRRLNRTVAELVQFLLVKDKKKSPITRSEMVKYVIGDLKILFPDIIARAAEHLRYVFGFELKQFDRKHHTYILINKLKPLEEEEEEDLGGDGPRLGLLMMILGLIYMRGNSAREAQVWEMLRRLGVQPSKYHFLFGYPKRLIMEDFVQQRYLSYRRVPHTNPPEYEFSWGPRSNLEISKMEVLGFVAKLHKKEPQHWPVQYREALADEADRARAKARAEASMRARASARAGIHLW
UniProt Q9H992: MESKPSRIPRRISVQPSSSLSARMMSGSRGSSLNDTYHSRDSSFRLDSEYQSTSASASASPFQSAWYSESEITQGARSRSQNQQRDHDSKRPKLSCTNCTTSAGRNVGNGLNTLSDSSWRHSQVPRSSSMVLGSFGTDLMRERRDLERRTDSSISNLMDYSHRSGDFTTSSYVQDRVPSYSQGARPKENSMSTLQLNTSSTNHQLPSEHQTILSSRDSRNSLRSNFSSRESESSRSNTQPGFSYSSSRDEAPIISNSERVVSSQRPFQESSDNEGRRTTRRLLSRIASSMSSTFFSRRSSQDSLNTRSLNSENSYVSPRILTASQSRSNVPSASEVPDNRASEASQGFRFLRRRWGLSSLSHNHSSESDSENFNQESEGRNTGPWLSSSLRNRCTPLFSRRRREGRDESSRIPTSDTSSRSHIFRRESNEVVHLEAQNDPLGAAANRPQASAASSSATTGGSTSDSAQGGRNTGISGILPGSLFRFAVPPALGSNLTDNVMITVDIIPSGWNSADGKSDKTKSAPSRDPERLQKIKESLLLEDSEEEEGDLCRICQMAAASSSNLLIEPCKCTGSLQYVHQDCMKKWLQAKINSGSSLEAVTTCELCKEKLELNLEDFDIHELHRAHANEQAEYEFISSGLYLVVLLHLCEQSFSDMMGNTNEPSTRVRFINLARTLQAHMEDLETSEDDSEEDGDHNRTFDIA
UniProt Q9BPZ7, whole entry, looked up: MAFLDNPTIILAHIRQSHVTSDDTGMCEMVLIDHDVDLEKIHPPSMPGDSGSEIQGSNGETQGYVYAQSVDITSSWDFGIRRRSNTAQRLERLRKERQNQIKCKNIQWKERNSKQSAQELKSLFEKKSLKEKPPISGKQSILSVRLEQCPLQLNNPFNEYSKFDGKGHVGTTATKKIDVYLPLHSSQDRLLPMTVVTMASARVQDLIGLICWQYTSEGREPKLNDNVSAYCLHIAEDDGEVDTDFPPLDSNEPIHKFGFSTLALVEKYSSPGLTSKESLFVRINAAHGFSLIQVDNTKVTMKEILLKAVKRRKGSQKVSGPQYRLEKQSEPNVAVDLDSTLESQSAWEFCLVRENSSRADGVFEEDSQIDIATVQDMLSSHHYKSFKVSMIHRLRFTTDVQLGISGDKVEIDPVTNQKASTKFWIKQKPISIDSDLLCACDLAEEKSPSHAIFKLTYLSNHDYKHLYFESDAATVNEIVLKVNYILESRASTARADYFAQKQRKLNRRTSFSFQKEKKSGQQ

Compound in experiment [2]: CC1=C(SC2=C1C(=N[C@H](C3=NN=C(N32)C)CC(=O)N)C4=CC=C(C=C4)Cl)C
A digest of the protocol: as §1

Compound in experiment [3]: CC1=C2C(=CC=C1)N=C(N(C2=O)C3=CC=CC=C3C)CN4C=NC5=C(N=CN=C54)N
A digest of the protocol: as §1

Compound in experiment [4]: Cc1sc2c(c1C)C(c1ccc(Cl)cc1)=N[C@@H](CC(=O)OC(C)(C)C)c1nnc(C)n1-2
Summed up: as §1

Compound in experiment [5]: c1ccc([C@@H]2C[C@H]2NC2CCNCC2)cc1
Summed up:
as §1

This passage reports log2 fold change results from the supplement of paper PMC10849652.

The other results are listed elsewhere or left out.

As to LYRM7 (UniProt Q5U5X0), the log2 fold change in experiment [1] was inactive: 0.036; in experiment [2], inactive: 0.06; in experiment [3] it was inactive: -0.022; in experiment [4], inactive: -0.002; in experiment [5], inactive: 0.037.

In the case of MAPK8 isoform 3 (UniProt P45983), the log2 fold change was inactive: -0.01 in experiment [1]; inactive: 0.03 in experiment [2]; inactive: 0.004 in experiment [3]; inactive: 0.071 in experiment [4]; inactive: -0.026 in experiment [5].

In the case of MAST2 (UniProt Q6P0Q8), the log2 fold change was inactive: -0.257 in experiment [1]; inactive: 0.027 in experiment [2]; inactive: 0.073 in experiment [3]; inactive: -0.074 in experiment [4]; inactive: -0.028 in experiment [5].

On to MAGOHB (UniProt Q96A72), for which the log2 fold change is inactive: -0.03 in experiment [1]; inactive: -0.015 in experiment [2]; inactive: -0.006 in experiment [3]; inactive: 0.046 in experiment [4]; inactive: -0.017 in experiment [5].

For the target MAP4K3 (UniProt Q8IVH8), the log2 fold change was inactive: 0.286 in experiment [1], inactive: 0.19 in experiment [2] and inactive: 0.158 in experiment [4].

As to MAP3K5 (UniProt Q99683), the log2 fold change in experiment [1] was inactive: -0.015; in experiment [2] it was inactive: -0.172; in experiment [3], inactive: 0.022; in experiment [5], inactive: -0.023.

On to MAPRE3 isoform 2 (UniProt Q9UPY8), for which the log2 fold change is inactive: 0.007 in experiment [1], inactive: -0.088 in experiment [2], inactive: -0.361 in experiment [3] and inactive: 0.09 in experiment [5].

Consider LYN (UniProt P07948), for which the log2 fold change in experiment [1] was inactive: -0.063; in experiment [2] it was inactive: -0.103; in experiment [3], inactive: -0.091; in experiment [4] it was inactive: -0.032; in experiment [5] it was inactive: 0.011.

As for MAP11 (UniProt Q8WVR3), the log2 fold change in experiment [1] was inactive: -0.103; in experiment [2], inactive: 0; in experiment [3], inactive: -0.006; in experiment [4], inactive: 0.063; in experiment [5], inactive: -0.03.

Consider MARCHF5 (UniProt Q9NX47), for which the log2 fold change was inactive: 0.061 in experiment [1]; inactive: -0.002 in experiment [2]; inactive: -0.026 in experiment [3]; inactive: 0.032 in experiment [4]; inactive: -0.154 in experiment [5].

Turning to MAST3 (UniProt O60307), in experiment [4], the log2 fold change is inactive: 0.041.

On to MAGEA3 (UniProt P43357), for which the log2 fold change in experiment [3] was inactive: 0.15.

Take MAGEA4 (UniProt P43358): the log2 fold change in experiment [3] was inactive: -0.019; in experiment [4], inactive: -0.043; in experiment [5], inactive: 0.204.

Regarding MARCHF3 (UniProt Q86UD3), the log2 fold change in experiment [3] is inactive: 0.022; in experiment [5], inactive: 0.007.

Turning to MAGEA6 (UniProt P43360), in experiment [3], the log2 fold change is inactive: 0.086.

Take MAGI1 (UniProt H7C4S7): the log2 fold change in experiment [4] is inactive: 0.016.

As to MAPK7 (UniProt Q13164), the log2 fold change in experiment [5] is inactive: 0.042.

For MAPK15 (UniProt Q8TD08), the log2 fold change in experiment [4] is inactive: -0.41.

On to MAPT isoform 7 (UniProt P10636), for which the log2 fold change in experiment [3] was inactive: 0.151; in experiment [5], inactive: 0.

For the target LY6D (UniProt Q14210), in experiment [4], the log2 fold change is inactive: -0.893.

In the case of MAN2B2 (UniProt Q9Y2E5), the log2 fold change in experiment [1] was inactive: 0.087; in experiment [2], inactive: 0.086; in experiment [4], inactive: -0.007; in experiment [5], inactive: 0.255.

Take MAFF (UniProt Q9ULX9): the log2 fold change in experiment [3] is inactive: -0.114; in experiment [5], inactive: 0.03.

As for MAGEA2 (UniProt P43356), the log2 fold change in experiment [4] was inactive: 0.003.

In the case of MANBAL (UniProt Q9NQG1), the log2 fold change in experiment [1] is inactive: -0.066; in experiment [2], inactive: 0.115; in experiment [5], inactive: -0.004.

Regarding MAGEB10 (UniProt Q96LZ2), the log2 fold change in experiment [5] is inactive: -0.147.

In the case of MAOA (UniProt P21397), the log2 fold change in experiment [4] is inactive: 0.079.

As for LYL1 (UniProt P12980), the log2 fold change in experiment [1] is inactive: -0.182; in experiment [2], inactive: 0.146; in experiment [5], inactive: -0.128.

With MAP3K8 (UniProt P41279), the log2 fold change in experiment [1] was inactive: 0.002; in experiment [2], inactive: 0.03; in experiment [4], inactive: 0.205; in experiment [5] it was inactive: -0.105.

Turning to MAP3K6 (UniProt O95382), in experiment [3], the log2 fold change is inactive: 0.012.

In the case of MACF1 (UniProt E9PLY5), the figures for the log2 fold change in experiment [1], in experiment [2] and in experiment [5] were inactive: -0.019, inactive: 0.111 and inactive: -0.235, respectively.

For MAGEA12 (UniProt P43365), the log2 fold change was inactive: 0.03 in experiment [3] and inactive: 0.09 in experiment [5].

Consider MAP3K1 (UniProt Q13233), for which the log2 fold change in experiment [3] was inactive: -0.063; in experiment [5] it was inactive: -0.066.

LYRM1 (UniProt O43325): the log2 fold change in experiment [3] is inactive: -0.071; in experiment [4], inactive: 0.031; in experiment [5], inactive: 0.25.

With MAGEF1 (UniProt Q9HAY2), the log2 fold change in experiment [4] is inactive: -0.163.

As for MACF1, A0A5F9ZGX0, the log2 fold change in experiment [5] was inactive: 0.101.

Consider LTBP1 isoform 4 (UniProt Q14766), for which the log2 fold change in experiment [1] is inactive: -0.02; in experiment [2] it was inactive: -0.118; in experiment [4] it was inactive: 0.115; in experiment [5], inactive: 0.096.

For the target MARCHF7 (UniProt Q9H992), in experiment [4], the log2 fold change is inactive: 0.001.

Take MAP3K3 isoform 2 (UniProt Q99759): the log2 fold change in experiment [3] is inactive: 0.031; in experiment [4], inactive: 0.005.

For the target LYN isoform 2 (UniProt P07948), the values for the log2 fold change in experiment [4] and in experiment [5] were inactive: 0.043 and inactive: 0.102, respectively.

Consider MAPKAP1 (UniProt Q9BPZ7), for which the log2 fold change in experiment [4] is inactive: -0.048.

With LTBR (UniProt P36941), the log2 fold change was inactive: -0.043 in experiment [1], inactive: 0.106 in experiment [2] and inactive: -0.267 in experiment [5].

Regarding MAGED4 isoform 4 (UniProt Q96JG8), the log2 fold change in experiment [5] was inactive: -0.165.

In the case of LYPLA1, A0A087X1K9, the log2 fold change was inactive: 0.323 in experiment [3] and inactive: -0.155 in experiment [5].
